Measurements: paper PMC7809799, “A microtubule‐LUZP1 association around tight junction promotes epithelial cell apical constriction” (The EMBO Journal, 2020)
Results are given in words; binding and its absence hold for the method and conditions named. In cells and extracts the contact can be indirect. Some results given as binding are weak or reduced against the parent protein; the word gives no strength. For part of these data: Sequences can lack the tags named with a protein. Values belong to the molecule of their own block, whether it stands above or below them.

Protein sequences, listed by entry. Tags and fused reporters are not part of them. Lines headed by an entry give the natural chain unless they say otherwise; changes in a name come on top.
UniProt P62141: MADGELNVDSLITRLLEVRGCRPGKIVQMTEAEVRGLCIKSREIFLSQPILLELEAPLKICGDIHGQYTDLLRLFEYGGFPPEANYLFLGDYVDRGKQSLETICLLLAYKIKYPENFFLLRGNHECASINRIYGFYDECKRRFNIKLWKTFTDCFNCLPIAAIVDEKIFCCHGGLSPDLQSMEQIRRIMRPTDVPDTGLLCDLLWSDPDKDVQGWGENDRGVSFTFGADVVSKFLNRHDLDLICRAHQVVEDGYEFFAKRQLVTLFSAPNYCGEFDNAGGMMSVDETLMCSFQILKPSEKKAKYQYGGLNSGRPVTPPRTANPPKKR

Tests used:
GFP‐LUZP1 (mouse) = target: T1, GFP‐LUZP1 (mouse) (UniProt Q8R4U7); test: co-IP; HEK‐293 transiently co‐transfected with two tagged proteins; RIPA or Hypo buffer lysate adjusted to 150 mM NaCl; protein A‐Sepharose with mouse anti‐GFP or anti‐HA antibodies, RT 120 min; immunoblotting
T1 sequence: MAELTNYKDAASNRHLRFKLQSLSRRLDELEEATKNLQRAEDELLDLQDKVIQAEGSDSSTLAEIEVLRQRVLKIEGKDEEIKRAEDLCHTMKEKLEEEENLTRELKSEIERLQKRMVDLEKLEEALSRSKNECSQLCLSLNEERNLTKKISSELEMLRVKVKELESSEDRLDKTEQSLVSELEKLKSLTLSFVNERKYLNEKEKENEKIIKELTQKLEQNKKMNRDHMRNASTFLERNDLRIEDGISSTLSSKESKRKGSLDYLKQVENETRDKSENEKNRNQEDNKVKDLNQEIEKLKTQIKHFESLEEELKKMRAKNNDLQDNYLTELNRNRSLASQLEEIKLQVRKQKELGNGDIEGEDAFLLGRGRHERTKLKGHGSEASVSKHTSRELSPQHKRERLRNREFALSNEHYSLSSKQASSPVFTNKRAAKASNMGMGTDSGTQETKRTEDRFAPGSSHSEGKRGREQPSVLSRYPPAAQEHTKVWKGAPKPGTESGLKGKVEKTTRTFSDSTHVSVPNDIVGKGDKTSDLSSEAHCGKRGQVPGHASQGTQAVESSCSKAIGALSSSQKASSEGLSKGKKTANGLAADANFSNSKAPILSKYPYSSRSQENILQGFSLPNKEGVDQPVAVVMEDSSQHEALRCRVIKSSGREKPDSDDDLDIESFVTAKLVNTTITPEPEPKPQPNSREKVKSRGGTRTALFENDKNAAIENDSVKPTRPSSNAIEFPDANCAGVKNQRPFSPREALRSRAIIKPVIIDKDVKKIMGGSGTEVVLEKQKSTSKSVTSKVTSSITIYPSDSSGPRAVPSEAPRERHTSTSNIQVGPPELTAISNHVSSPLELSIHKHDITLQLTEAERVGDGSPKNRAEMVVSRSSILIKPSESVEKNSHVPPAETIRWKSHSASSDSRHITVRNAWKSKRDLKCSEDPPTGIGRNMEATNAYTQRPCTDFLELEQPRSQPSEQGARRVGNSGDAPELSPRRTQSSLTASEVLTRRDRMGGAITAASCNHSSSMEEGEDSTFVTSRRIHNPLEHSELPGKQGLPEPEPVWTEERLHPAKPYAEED

[1] = target: T2, LUZP1 (tagged, co‐immunoprecipitation with ZO‐1 and ZO‐2) (mouse) (UniProt Q8R4U7); test: as above
T2 sequence: T1 sequence

[2] = target: T3, LUZP1 (pull‐down assay with Merlin) (mouse) (UniProt Q8R4U7); test: pull-down; pull‐down assays between Merlin and LUZP1, immunoblotting; not described in the methods
T3 sequence: T1 sequence

binding (GFP‐LUZP1 (mouse)): binds
Molecule: HA‐PP1c β/δ (from UniProt P62141 1-327) (enzyme)

binding [1]: binds
B1: ZO‐2 (co‐immunoprecipitation with LUZP1, Fig EV2G) (protein, UniProt Q9Z0U1 1-1167)
chain: MEEVIWEQYTVTLQKDSKRGFGIAVSGGRDNPHFENGETSIVISDVLPGGPADGLLQENDRVVMVNGTPMEDVLHSFAVQQLRKSGKIAAIVVKRPRKVQVAPLQGSPPLSHDDRGFEVIEEFDGRSFRSGYSERSRHSSHDMLSHSWEGNRERGRPHQRTQSRERERSRGRSLERGLDQEDYGRSRERSRGRSLERGLDRDFVSRDHSRGRSIDRDYDRDYERSYHEAYEPDYGGGYSPSYDRRAHPETRYERSRSREHLRSRSPSPESRSRHEHKGQHDPDRPIGVLLTKSKANEEYGLRLGSQIFIKEMTRTGLATKDGNLHEGDIILKINGTVTENMSLTDARKLIEKSRGKLQLVVLRDSKQTLINIPALNDSDSEVEDISEIESNRSFSPEERRQQYSDQDYHSSTEKLKERPSSREETSGRLSRMGATPTPFKSTGDITAAGVTEASREPRYQEEGPVPQPRTAPRVFLRPSPEDEAIYGPNTKMVRFKKGDSVGLRLAGGNDVGIFVAGIQEGTSAEQEGLQEGDQILKVNTQDFRGLVREDAVLYLLEIPKGETVTILAQSRADVYRDILACGRGDSFFIRSHFECEKETPQSLAFTRGEVFRVVDTLYDGKLGHWLAVRIGNELEKGLIPNKSRAEQMASVQNAQRENAGDRADFWRMRGQRSSGGVKKNLRKSREDLAAAVSVSTKFPAYEKVLLREAGFKRPVVLFGPIADIAMERLATELPDLFQTAKTEPKDAGSEKSSGVVRLNTVRQIIEQDKHALLDVTPKAVDLLNYTQWFPIVIFFNPDSRQGVKTIRQRLSPTSNKSSRKLFDQANKLKKTCSHLFTATINVNSANDGWFGSLKDSIQQQQNEAVWVSEGKMEGMDDDAEDRMSYLTAMGADYLSCDSRLISDFEDTDGEGGAYTDNELEEPAEEPLVSSITRSSEPVQHEENIRKSSPEPRAQMRRAASRDQLRDASPPPAFKPEPPKARSQNREDSFDYSKSNLPATAGSEIPGGSTKGYPPPIAAKPAFGRPILKPSTPVPMPESEEVGESTEEQEDAPRSVLGRVKIFEKMDHKAKLQRMQELQEAQNARIEIAQKHPDIYAVPIKAPKPDAGLPPHMSSRPPEPQKAPSRLYQDTRGSYGSDPEEEEYRQQLAAHSKRGYYSQPSRYRDTEL

binding [2]: no binding
B2: Merlin (protein, UniProt P46662 1-596)
chain: MAGAIASRMSFSSLKRKQPKTFTVRIVTMDAEMEFNCEMKWKGKDLFDLVCRTLGLRETWFFGLQYTIKDTVAWLKMDKKVLDHDVSKEEPVTFHFLAKFYPENAEEELVQEITQHLFFLQVKKQILDEKVYCPPEASVLLASYAVQAKYGDYDPSVHKRGFLAQEELLPKRVINLYQMTPEMWEERITAWYAEHRGRARDEAEMEYLKIAQDLEMYGVNYFTIRNKKGTELLLGVDALGLHIYDPENRLTPKISFPWNEIRNISYSDKEFTIKPLDKKIDVFKFNSSKLRVNKLILQLCIGNHDLFMRRRKADSLEVQQMKAQAREEKARKQMERQRLAREKQMREEAERTRDELERRLLQMKEEATMANEALMRSEETADLLAEKAQITEEEAKLLAQKAAEAEQEMQRIKATAIRTEEEKRLMEQKVLEAEVLALKMAEESERRAKEADQLKQDLQEAREAERRAKQKLLEIATKPTYPPMNPIPPPLPPDIPSFDIIADSLSFDFKDTDMKRLSMEIEKEKVEYMEKSKHLQEQLNELKTEIEALKLKERETALDVLHSESSDRGGPSSKHNTIKKLTLQSAKSRVAFFEEL
